Results deposited as PubChem BioAssay AID1259254 (NCATS, 2017).

- Purpose: 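Genome-wide screen for genes that prevent DNA re-replication in cancer cells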 (primary screen)
- Cells: human HCT116 colorectal cancer cells
- Reagents: single siRNA against human genes
- Time to read-out: 3 days
- Measurement: 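Imaged Hoechst DNA stain sorts each cell into a cycle phase by DNA amount; per plate, G2 fraction set to 0% for non-targeting and 100% for GMNN siRNA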
- Scale: G2 robust z-score and G2 cells, % of GMNN control: higher = more G2 cells, more excess DNA replication; raw share of cells in G2: higher = larger share of cells with G2 DNA content
- Call rule: 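Active siRNAs have a G2 robust z of 5 or more median absolute deviations over the median, which in these data means about 38% or higher of GMNN control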
This is an unselected part of about 59,000 reagents tested. About 1,550 of them (2.6%) were called active. 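G2 share is only a proxy for re-replication; each gene was hit by three separate siRNAs, and active genes were retested.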 Raw values vary from plate to plate and are shown uncorrected. The numbers tell different reagents against one gene apart. Reagent sequences are not shown. Not given: the amount of reagent.

| target | reagent no. | G2 robust z-score | G2 cells, % of GMNN control | raw share of cells in G2 (%) | call |
| --- | --- | --- | --- | --- | --- |
| LOC107985384 | 1 | -0.12 | 2.12 | 4.35 | inactive |
| LOC107985384 | 2 | -0.337 | 0.598 | 3.08 | inactive |
| LOC107985384 | 3 | -0.118 | 2.13 | 4.41 | inactive |
| MTF2 | 1 | -0.0786 | 2.41 | 4.33 | inactive |
| MTF2 | 2 | -0.159 | 1.85 | 6.81 | inactive |
| MTF2 | 3 | -0.634 | -1.49 | 2.71 | inactive |
| ARMH3 | 1 | -0.205 | 1.53 | 5.24 | inactive |
| ARMH3 | 2 | 0.818 | 8.72 | 8.52 | inactive |
| ARMH3 | 3 | 0.348 | 5.41 | 4.13 | inactive |
| OR4Q3 | 1 | -0.569 | -1.04 | 3.22 | inactive |
| OR4Q3 | 2 | -0.167 | 1.79 | 4.1 | inactive |
| OR4Q3 | 3 | -0.719 | -2.09 | 2.41 | inactive |
| BBS7 | 1 | -0.493 | -0.503 | 4.33 | inactive |
| BBS7 | 2 | -0.128 | 2.07 | 5 | inactive |
| BBS7 | 3 | -0.319 | 0.724 | 3.37 | inactive |
| LBH | 1 | 0.316 | 5.19 | 5.84 | inactive |
| LBH | 2 | 0.577 | 7.03 | 5.54 | inactive |
| LBH | 3 | -0.0344 | 2.73 | 3.23 | inactive |
| ZNF486 | 1 | -0.393 | 0.2 | 3.16 | inactive |
| ZNF486 | 2 | 0.577 | 7.03 | 5.61 | inactive |
| ZNF486 | 3 | -0.665 | -1.71 | 2.93 | inactive |
| GNG7 | 1 | -0.408 | 0.0959 | 3.69 | inactive |
| GNG7 | 2 | 0.405 | 5.81 | 7.47 | inactive |
| GNG7 | 3 | 0.535 | 6.73 | 7.68 | inactive |
| PTGIS | 1 | 5.23 | 39.8 | 18.7 | active |
| PTGIS | 2 | 0.224 | 4.55 | 5.66 | inactive |
| PTGIS | 3 | -1.03 | -4.29 | 3.04 | inactive |
| RNFT2 | 1 | -0.00161 | 2.96 | 5.34 | inactive |
| RNFT2 | 2 | -0.369 | 0.372 | 3.12 | inactive |
| RNFT2 | 3 | 2.18 | 18.3 | 8.73 | inactive |
| FHL1 | 1 | 1.9 | 16.3 | 9.02 | inactive |
| FHL1 | 2 | 0.72 | 8.03 | 6.65 | inactive |
| FHL1 | 3 | 0.0286 | 3.17 | 6.33 | inactive |
| TARDBP | 1 | -0.799 | -2.66 | 2.96 | inactive |
| TARDBP | 2 | -0.694 | -1.92 | 3.51 | inactive |
| TARDBP | 3 | 4.83 | 36.9 | 21.2 | inactive |
| GRIN2D | 1 | 0.69 | 7.82 | 8.13 | inactive |
| GRIN2D | 2 | -1.36 | -6.63 | 2.54 | inactive |
| GRIN2D | 3 | 2.64 | 21.6 | 12.8 | inactive |
| KRT20 | 1 | -0.905 | -3.4 | 2.39 | inactive |
| KRT20 | 2 | 2.44 | 20.1 | 12.8 | inactive |
| KRT20 | 3 | -0.569 | -1.04 | 2.85 | inactive |
| KBTBD8 | 1 | -1.2 | -5.47 | 2.29 | inactive |
| KBTBD8 | 2 | 4.93 | 37.7 | 14.6 | inactive |
| KBTBD8 | 3 | -0.603 | -1.28 | 2.02 | inactive |
| VLDLR | 1 | -0.173 | 1.75 | 5.05 | inactive |
| VLDLR | 2 | -0.0255 | 2.79 | 5.3 | inactive |
| VLDLR | 3 | -0.804 | -2.69 | 4.46 | inactive |
| PAK3 | 1 | 2.94 | 23.7 | 13.4 | inactive |
| PAK3 | 2 | -1.01 | -4.11 | 4.02 | inactive |
| PAK3 | 3 | -0.857 | -3.06 | 2.94 | inactive |
| RPL37P23 | 1 | 0.944 | 9.61 | 6.79 | inactive |
| RPL37P23 | 2 | 0.0829 | 3.55 | 4.17 | inactive |
| RPL37P23 | 3 | 0.229 | 4.58 | 5.5 | inactive |
| H4C5 | 1 | -0.424 | -0.0131 | 5.13 | inactive |
| H4C5 | 2 | -0.192 | 1.62 | 4.54 | inactive |
| H4C5 | 3 | -0.219 | 1.43 | 3.85 | inactive |
| TRPM5 | 1 | -1.26 | -5.87 | 3.15 | inactive |
| TRPM5 | 2 | -0.535 | -0.798 | 4.51 | inactive |
| TRPM5 | 3 | -0.876 | -3.19 | 3.13 | inactive |
| CRKL | 1 | 7.41 | 55.1 | 31.2 | active |
| CRKL | 2 | 0.834 | 8.84 | 7.32 | inactive |
| CRKL | 3 | 3.03 | 24.3 | 13 | inactive |
| ZNF493 | 1 | -0.376 | 0.323 | 3.2 | inactive |
| ZNF493 | 2 | -0.105 | 2.23 | 3.94 | inactive |
| ZNF493 | 3 | -0.994 | -4.03 | 2.11 | inactive |
| MMRN1 | 1 | -0.888 | -3.28 | 3.7 | inactive |
| MMRN1 | 2 | 1.87 | 16.1 | 10.8 | inactive |
| MMRN1 | 3 | 1.83 | 15.9 | 9.11 | inactive |

Part of the list above, reformatted.
MTF2 #1
- G2 robust z-score: -0.0786
- G2 cells, % of GMNN control: 2.41
- raw share of cells in G2 (%): 4.33
- call: inactive

MTF2 #2
- G2 robust z-score: -0.159
- G2 cells, % of GMNN control: 1.85
- raw share of cells in G2 (%): 6.81
- call: inactive

MTF2 #3
- G2 robust z-score: -0.634
- G2 cells, % of GMNN control: -1.49
- raw share of cells in G2 (%): 2.71
- call: inactive

ARMH3 #1
- G2 robust z-score: -0.205
- G2 cells, % of GMNN control: 1.53
- raw share of cells in G2 (%): 5.24
- call: inactive

ARMH3 #2
- G2 robust z-score: 0.818
- G2 cells, % of GMNN control: 8.72
- raw share of cells in G2 (%): 8.52
- call: inactive

ARMH3 #3
- G2 robust z-score: 0.348
- G2 cells, % of GMNN control: 5.41
- raw share of cells in G2 (%): 4.13
- call: inactive

OR4Q3 #1
- G2 robust z-score: -0.569
- G2 cells, % of GMNN control: -1.04
- raw share of cells in G2 (%): 3.22
- call: inactive
